# In publication PMC7819943, “Rice protein-binding microarrays: a tool to detect cis-acting elements near promoter regions in rice”:
# Protein sequences, listed by entry. Tags and fused reporters are not part of them.
# UniProt Q0JBA9, entry or part of it: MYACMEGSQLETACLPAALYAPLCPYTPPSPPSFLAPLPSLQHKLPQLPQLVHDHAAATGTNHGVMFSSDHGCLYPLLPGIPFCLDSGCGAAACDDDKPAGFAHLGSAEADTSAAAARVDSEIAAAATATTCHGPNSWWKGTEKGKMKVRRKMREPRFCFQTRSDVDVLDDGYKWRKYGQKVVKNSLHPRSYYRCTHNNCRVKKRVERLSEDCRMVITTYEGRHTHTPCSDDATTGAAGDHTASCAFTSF
# This is one part of the list.
# Target: OsWRKY34 (Oryza sativa, UniProt Q0JBA9 1-250)
# Test: protein-binding microarray (RPBM); PBS, 2% BSA, 51.3 ng/ul salmon testes DNA, 50 uM zinc acetate, 200 nM TF, 25 C, 1 h; high values mean tight binding
# Settings: protein: recombinant; tags: N-terminal polyhistidine and DsRed monomer fusion (pET32a); label: CyDye5-dUTP incorporated in the synthesized complementary strand; 3' TTTTT single-stranded linker to array surface; dsDNA, one strand shown
# Outline: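 Using Ni–NTA, transcription factors fused N-terminally to polyhistidine and DsRed were purified after expression in E. coli BL21-CodonPlus. These were incubated at 200 nM with a blocked, double-stranded custom Agilent array for 1 h at 25 °C in a buffer containing 50 µM zinc acetate, and the array was washed. The binding signal is per-feature fluorescence intensity (arbitrary units) on an Axon 4000B scanner.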
row,Sequence,binding signal
1,GTTTTCACGGTAATTACTGGCTCTTTTTACTCAACAATCTCGGAGTCACCTAGTGCAG,9460 fluorescence intensity (a.u.)
2,TACTGTCTTGGCCTATCACAGAGCCGCTTCCATTTCCATCCGGAGTCACCTAGTGCAG,9530 fluorescence intensity (a.u.)
3,CTCCGCTGCCGCTATCCCCGCCTCGCGCCGCGCCACCATGCGGAGTCACCTAGTGCAG,8150 fluorescence intensity (a.u.)
4,GGAGGGCGGGCTGTTATATTCTTCACACCTTGCATGTAAGCGGAGTCACCTAGTGCAG,18700 fluorescence intensity (a.u.)
5,ATCCGCCGTGTTATTATCTCTTTTCCGGCCCCGAACTGTTCGGAGTCACCTAGTGCAG,9710 fluorescence intensity (a.u.)
6,ATGATGATGATTTTTTGCCTTGCTTTGCTGATGCTCCTCCCGGAGTCACCTAGTGCAG,8730 fluorescence intensity (a.u.)
7,ATTCCCGCATCCGCATCCCGCATCCCGCCTGGTTTGTGATCGGAGTCACCTAGTGCAG,12200 fluorescence intensity (a.u.)
8,ATGAATCTATTATTATGTTTTTGTGATGCTGTGATGTTCCCGGAGTCACCTAGTGCAG,10000 fluorescence intensity (a.u.)
9,GGGGTGGGCTGTTCGTGGGCCTCTCCCCACGTTGCGATGCCGGAGTCACCTAGTGCAG,9080 fluorescence intensity (a.u.)
10,GTTTATGTGGGCCCCACTATTCTTTTTTATTATTGTGTGTCGGAGTCACCTAGTGCAG,8660 fluorescence intensity (a.u.)
11,CTCCATGTTGGATGTGGCTCATCTCTCCGCCGCTCACTACCGGAGTCACCTAGTGCAG,9030 fluorescence intensity (a.u.)
12,ATTCCACTCTCTCTTCCCTTACTCAAATTGTTCTGGAAATCGGAGTCACCTAGTGCAG,8300 fluorescence intensity (a.u.)
13,GTCTTCCCCACATTGGCTCTCATCGCTCTGACGGTATCTTCGGAGTCACCTAGTGCAG,8320 fluorescence intensity (a.u.)
14,TAAGTTCAGGTGGGTTTCTTTCTTTTGTGCAAATTTAAGTCGGAGTCACCTAGTGCAG,9010 fluorescence intensity (a.u.)
15,ATTTTGTTTAGGCTTAGATTTGCTGTCTTTGGCTTTAAGTCGGAGTCACCTAGTGCAG,10300 fluorescence intensity (a.u.)
16,CCCCAAAATCACCGTCTACCCCGACACTTTTCACGCTCCTCGGAGTCACCTAGTGCAG,8650 fluorescence intensity (a.u.)
17,TCCGTGCAGACTTTTCGCTGGGCCGTTTGTGTTTTTCTTTCGGAGTCACCTAGTGCAG,14700 fluorescence intensity (a.u.)
18,GCCTACCCTAACACAGCCAGCCCGGGACCACCACGCCGCGCGGAGTCACCTAGTGCAG,10000 fluorescence intensity (a.u.)
19,TGACTTTCTCGGATTTAATGCATGACTCTTCATTCTTCCACGGAGTCACCTAGTGCAG,9410 fluorescence intensity (a.u.)
20,CTATGTGTGTGTGTGTATAAATATGCGACGCGAGCTCGAGCGGAGTCACCTAGTGCAG,10600 fluorescence intensity (a.u.)
21,AGGGCACATCCCCAAGGCCATATCTCACTTGACAAAGCTCCGGAGTCACCTAGTGCAG,8070 fluorescence intensity (a.u.)

row,Sequence,binding signal
1,CCATTTTTCTGCTCTCATTATATCATGTGGTTTGCTTCTGCGGAGTCACCTAGTGCAG,8030 fluorescence intensity (a.u.)
2,CCTTCCGATCCACCACCCGCCAGTCTCCTCGCCAATTCTGCGGAGTCACCTAGTGCAG,8690 fluorescence intensity (a.u.)
3,GCCGGCCGCCGCAATGCCGCGAGCCCCACCTCCGCGGCCGCGGAGTCACCTAGTGCAG,8480 fluorescence intensity (a.u.)
4,TTGATTGTGACTTGCCATATTTTTTCAATAGCATATCCCACGGAGTCACCTAGTGCAG,8520 fluorescence intensity (a.u.)
5,TGTAGAGGTCTCATAAACCACCATGACCTTGCTGCTTCACCGGAGTCACCTAGTGCAG,9620 fluorescence intensity (a.u.)
6,TGGTGGTGGTGGTGGGCCTTCCCGTCGTCGTCTTCGACTTCGGAGTCACCTAGTGCAG,12400 fluorescence intensity (a.u.)
7,AAGTTTATATACCCGTTTCAAATTTGAATTTGAATTATATCGGAGTCACCTAGTGCAG,8050 fluorescence intensity (a.u.)
8,CCCAACTATTTCCACAAATTCTTTCGATAAGCCATTATATCGGAGTCACCTAGTGCAG,8580 fluorescence intensity (a.u.)
9,GTTCTATGTCCTTCCTGTTCTTTGTCTTTGGTCCTCTATGCGGAGTCACCTAGTGCAG,9420 fluorescence intensity (a.u.)
10,TTCTTGTGCTGTTTTTGTTCTTTTTGTTTCATAATACCAGCGGAGTCACCTAGTGCAG,8400 fluorescence intensity (a.u.)
11,GCCGATTGAAGAGCAAATACAGTTGACTTTTAAAATCGAACGGAGTCACCTAGTGCAG,8290 fluorescence intensity (a.u.)
12,ATCGTCGTTGTGTTGTTATTGGAGCTAAAGCTCAGCCGAACGGAGTCACCTAGTGCAG,9320 fluorescence intensity (a.u.)
13,GAGGTTCATTGTGGCGCACAATTTTGTGGTAATCTATACACGGAGTCACCTAGTGCAG,9790 fluorescence intensity (a.u.)
14,CAGTCTTTTTCTTTTATACACATGCTTAACAGCGTAATTACGGAGTCACCTAGTGCAG,8460 fluorescence intensity (a.u.)
15,TTTCTTTGACTCGGTGACTTTGTGAGAGATGTTTTATGCCCGGAGTCACCTAGTGCAG,9190 fluorescence intensity (a.u.)
16,ATTTGTTCCCATCCATCTCGGCCCTGTCGCCATTGTGCCACGGAGTCACCTAGTGCAG,9450 fluorescence intensity (a.u.)
17,TTTCTTAGACCCGCTATTCTAATCTACTTTCTCTATTTCACGGAGTCACCTAGTGCAG,9140 fluorescence intensity (a.u.)
18,TCTCTTGCCCTTGGCGTAGCTGCTTGCAAACGCCTTGAGACGGAGTCACCTAGTGCAG,8400 fluorescence intensity (a.u.)
19,ATCTTATCAGGCCTTTTTGTTGTTCTGCTGGTCTTGCTCGCGGAGTCACCTAGTGCAG,10600 fluorescence intensity (a.u.)
20,TTCCTCTGGCCCGCCGGCAAAGGGCGCCACCGTCTCGACTCGGAGTCACCTAGTGCAG,8970 fluorescence intensity (a.u.)
21,GATATAACCAACCAGTCTAACCACCACTACACACTCCACTCGGAGTCACCTAGTGCAG,8310 fluorescence intensity (a.u.)

# Copied from the list:
# Entry for TTTCTTAGACCCGCTATTCTAATCTACTTTCTCTATTTCACGGAGTCACCTAGTGCAG under binding signal: 9140 fluorescence intensity (a.u.)
# Entry for TAAGTTCAGGTGGGTTTCTTTCTTTTGTGCAAATTTAAGTCGGAGTCACCTAGTGCAG under binding signal: 9010 fluorescence intensity (a.u.)
